# Experimental data: patent US6020460 (dated 2000)
# Assay: general procedure: Boc solid-phase peptide synthesis
# Conditions: oxidative folding step, one disulfide bridge, sequence written open
substance,measurement,value
Gly-Pen-Gly-Arg-Gly-Asp-Ser-Pro-Cys-Ala,crude HPLC purity,90%
